{"source": "PubChem BioAssay AID1259308 (NCATS, 2017)", "test": "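Genes whose loss raises luciferase production in HEK293 cells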 (primary screen)", "system": "human HEK293 embryonic kidney cells stably expressing firefly luciferase (HEK-CMV-Luc2-Hygro)", "knock-down reagent": "single siRNA against human genes, 0.8 pmol siRNA per well", "timing": "72 h", "measurement": "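Reporter luminescence and viable-cell signal on separate replicate plates, given as percent of non-targeting control and median/MAD z-scores, plus per-cell luciferase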", "scale": "total luciferase, z-score: higher = more reporter protein produced", "active means": "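Active when the median/MAD z-score for overall luciferase is greater than 3; a gene was taken forward for validation with new siRNAs if at least two of its three siRNAs passed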", "meaning of the calls": "active = raised luciferase; inactive = no rise", "note": "In all, the deposit lists about 59,000 reagents; this is a part drawn at random. About 1,510 of them (2.6%) count as active. 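Calls use total luciferase alone and ignore viability, so some active siRNAs may act by altering cell number.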 Unmarked entries are inactive. Reagents against one gene are numbered here. Further read-outs or replicates are left out here."}
{"gene": "SCML1 (Scm polycomb group protein like 1)", "reagent": 1, "total luciferase, z-score": 0.724}
{"gene": "SCML1 (Scm polycomb group protein like 1)", "reagent": 2, "total luciferase, z-score": -1.4}
{"gene": "SCML1 (Scm polycomb group protein like 1)", "reagent": 3, "total luciferase, z-score": 0.816}
{"gene": "DPYSL2 (dihydropyrimidinase like 2)", "reagent": 1, "total luciferase, z-score": -0.0899}
{"gene": "DPYSL2 (dihydropyrimidinase like 2)", "reagent": 2, "total luciferase, z-score": 0.94}
{"gene": "DPYSL2 (dihydropyrimidinase like 2)", "reagent": 3, "total luciferase, z-score": 0.0191}
{"gene": "OPTN (optineurin)", "reagent": 1, "total luciferase, z-score": -0.011}
{"gene": "OPTN (optineurin)", "reagent": 2, "total luciferase, z-score": 0.126}
{"gene": "OPTN (optineurin)", "reagent": 3, "total luciferase, z-score": -0.198}
{"gene": "TM7SF3 (transmembrane 7 superfamily member 3)", "reagent": 1, "total luciferase, z-score": -0.604}
{"gene": "TM7SF3 (transmembrane 7 superfamily member 3)", "reagent": 2, "total luciferase, z-score": -0.717}
{"gene": "TM7SF3 (transmembrane 7 superfamily member 3)", "reagent": 3, "total luciferase, z-score": 0.689}
{"gene": "LNPK (lunapark, ER junction formation factor)", "reagent": 1, "total luciferase, z-score": -2.71}
{"gene": "LNPK (lunapark, ER junction formation factor)", "reagent": 2, "total luciferase, z-score": 0.783}
{"gene": "LNPK (lunapark, ER junction formation factor)", "reagent": 3, "total luciferase, z-score": -0.548}
{"gene": "DCST1 (DC-STAMP domain containing 1)", "reagent": 1, "total luciferase, z-score": 0.44}
{"gene": "DCST1 (DC-STAMP domain containing 1)", "reagent": 2, "total luciferase, z-score": -0.728}
{"gene": "DCST1 (DC-STAMP domain containing 1)", "reagent": 3, "total luciferase, z-score": 0.179}
{"gene": "POU2AF3 (POU class 2 homeobox associating factor 3)", "reagent": 1, "total luciferase, z-score": 1.11}
{"gene": "POU2AF3 (POU class 2 homeobox associating factor 3)", "reagent": 2, "total luciferase, z-score": -0.321}
{"gene": "POU2AF3 (POU class 2 homeobox associating factor 3)", "reagent": 3, "total luciferase, z-score": 0.302}

Next part, starting with the last 4 of the part before.
{"gene": "DCST1 (DC-STAMP domain containing 1)", "reagent": 3, "total luciferase, z-score": 0.179}
{"gene": "POU2AF3 (POU class 2 homeobox associating factor 3)", "reagent": 1, "total luciferase, z-score": 1.11}
{"gene": "POU2AF3 (POU class 2 homeobox associating factor 3)", "reagent": 2, "total luciferase, z-score": -0.321}
{"gene": "POU2AF3 (POU class 2 homeobox associating factor 3)", "reagent": 3, "total luciferase, z-score": 0.302}
{"gene": "MEIG1 (meiosis/spermiogenesis associated 1)", "reagent": 1, "total luciferase, z-score": -0.0253}
{"gene": "MEIG1 (meiosis/spermiogenesis associated 1)", "reagent": 2, "total luciferase, z-score": -0.0448}
{"gene": "MEIG1 (meiosis/spermiogenesis associated 1)", "reagent": 3, "total luciferase, z-score": -0.218}
{"gene": "CBX4 (chromobox 4)", "reagent": 1, "total luciferase, z-score": 0.55}
{"gene": "CBX4 (chromobox 4)", "reagent": 2, "total luciferase, z-score": 2.58}
{"gene": "CBX4 (chromobox 4)", "reagent": 3, "total luciferase, z-score": -1.23}
{"gene": "AKR1B1 (aldo-keto reductase family 1 member B)", "reagent": 1, "total luciferase, z-score": 1.48}
{"gene": "AKR1B1 (aldo-keto reductase family 1 member B)", "reagent": 2, "total luciferase, z-score": 0.931}
{"gene": "AKR1B1 (aldo-keto reductase family 1 member B)", "reagent": 3, "total luciferase, z-score": 0.956}
{"gene": "SORBS1 (sorbin and SH3 domain containing 1)", "reagent": 1, "total luciferase, z-score": 0.0932}
{"gene": "SORBS1 (sorbin and SH3 domain containing 1)", "reagent": 2, "total luciferase, z-score": 0.88}
{"gene": "SORBS1 (sorbin and SH3 domain containing 1)", "reagent": 3, "total luciferase, z-score": -0.038}
